In patent US9944927B2, “Therapeutic applications of p53 isoforms in regenerative medicine, aging and cancer” (The United States of America as Represented by the …, priority 2007, dated 2018):
Some results were stated once for a whole list of compounds, not compound by compound.

Test system: MRC-5 and WI-38 fibroblasts
Test: cellular senescence: senescent growth arrest, SA-β-gal staining
Assay type: cell-based, human
Conditions: siRNA-transfected early-passage MRC-5 and WI-38

Row | Substance | time to senescent growth arrest [days]
1 | 5′-CUU GUG CCC UGA CUU UCA A[dT][dT]-3′ [Δ133si-2] | ≤ 7
2 | 5′-UGUUCACUUGUGCCCUGACUUUCAA-3′ [Δ133si-1] | ≤ 7
